From patent US6407062

Target: cyclin E (mouse, endogenous) (mouse)
Test: immunoprecipitates from cell lysates blotted with anti-ARF-p19; Sf9 baculovirus reconstruction also gave no convincing evidence

binding: no binding
B1: ARF-p19 (mouse, full-length 169 amino acid protein) (protein)
chain: MGRRFLVTVRIQRAGRPLQERVFLVKFVRSRRPRTASCALAFVNMLLRLERILRRGPHRNPGPGDDDGQRSRSSSSAQLRCRFELRGPHYLLPPGARRSAGRLPGHAGGAARVRGSAGCARCLGSPAARLGPRAGTSRHRAIFAFRWVLFVFRWVVFVYRWERRPDRRA

These are yes or no findings as the source states them, for the method shown.
